Measurements: patent US9078444B2, “Isothiazoline derivatives as insecticidal compounds” (Syngenta Participations AG, priority 2011, dated 2015)
Some entries share one result that the patent states for a list of compounds.

Assays:
Type in all cases: in vivo
[1] = test system: Heliothis virescens; test: Heliothis virescens (tobacco budworm) egg test on artificial diet; settings: 200 ppm (concentration in well 18 ppm), eggs on artificial diet; egg mortality, larval mortality, growth regulation after 4 days
Protocol: Heliothis virescens (Tobacco Budworm): Eggs (0-24 h old) were placed in 24-well microtiter plate on artificial diet and treated with test solutions at an application rate of 200 ppm (concentration in well 18 ppm) by pipetting. After an incubation period of 4 days, samples were checked for egg mortality, larval mortality, and growth regulation.

[2] = test system: Plutella xylostella; test: Plutella xylostella (diamond back moth) artificial diet test; settings: 200 ppm (concentration in well 18 ppm), L2 larvae, larval mortality and growth regulation after 6 days
Protocol: (§1) Plutella xylostella (Diamond Back Moth): 24-well microtiter plate (MTP) with artificial diet was treated with test solutions at an application rate of 200 ppm (concentration in well 18 ppm) by pipetting. After drying, the MTPs were infested with L2 larvae (7-12 per well). After an incubation period of 6 days, samples were checked for larval mortality and growth regulation.

[3] = test system: Tetranychus urticae; test: Tetranychus urticae (two-spotted spider mite) bean leaf disc test; settings: 200 ppm sprayed on bean leaf discs, mixed ages; egg, larval and adult mortality 8 days later
Text: Tetranychus urticae (Two-Spotted Spider Mite): Bean leaf discs on agar in 24-well microtiter plates were sprayed with test solutions at an application rate of 200 ppm. After drying, the leaf discs are infested with mite populations of mixed ages. 8 days later, discs are checked for egg mortality, larval mortality, and adult mortality.

[4] = test system: Diabrotica balteata; test: Diabrotica balteata (corn root worm) artificial diet test; settings: 200 ppm (concentration in well 18 ppm), L2 larvae, larval mortality and growth regulation after 5 days
Protocol: as §1, with “Diabrotica balteata (Corn Root Worm): A” for “Plutella xylostella (Diamond Back Moth):”, “(6-10” for “(7-12”, “5” for “6”

[5] = test system: Thrips tabaci; test: Thrips tabaci (onion thrips) sunflower leaf disc test; settings: 200 ppm sprayed on sunflower leaf discs, mixed ages; mortality after 7 days
Protocol: Thrips tabaci (Onion Thrips): Sunflower leaf discs were placed on agar in a 24-well microtiter plate and sprayed with test solutions at an application rate of 200 ppm. After drying, the leaf discs were infested with a thrips population of mixed ages. After an incubation period of 7 days, samples were checked for mortality.

[6] = test system: Spodoptera littoralis; test: Spodoptera littoralis (Egyptian cotton leafworm) cotton leaf disc test; settings: 200 ppm sprayed on cotton leaf discs; mortality, feeding behavior, growth regulation 3 days after treatment
Protocol: Spodoptera littoralis (Egyptian Cotton Leafworm): Cotton leaf discs were placed on agar in a 24-well microtiter plate and sprayed with test solutions at an application rate of 200 ppm. After drying, the leaf discs were infested with […]. The samples were checked for mortality, feeding behavior, and growth regulation 3 days after treatment (DAT).

Cc1cc(C2=NSC(c3cc(Cl)cc(Cl)c3)(C(F)(F)F)C2)ccc1C(=O)NC1CC(=NOCC(F)(F)F)C1 (stereo not shown) [Compound A29]
at least 80%: control of Heliothis virescens [1] | control of Plutella xylostella [2] | control of Tetranychus urticae [3] | control of Diabrotica balteata [4] | control of Thrips tabaci [5] | control of Spodoptera littoralis [6]

Cc1cc(C2=NSC(c3cc(Cl)cc(Cl)c3)(C(F)(F)F)C2)ccc1C(=O)NC1CCC1 (stereo not shown) [Compound A24]
at least 80%: control of Heliothis virescens [1] | control of Plutella xylostella [2] | control of Tetranychus urticae [3] | control of Diabrotica balteata [4] | control of Thrips tabaci [5] | control of Spodoptera littoralis [6]

Cc1cc(C2=NSC(c3cc(Cl)cc(Cl)c3)(C(F)(F)F)C2)ccc1C(=O)NC1CC1F (stereo not shown) [Compound A72]
at least 80%: control of Plutella xylostella [2] | control of Tetranychus urticae [3] | control of Diabrotica balteata [4] | control of Thrips tabaci [5] | control of Spodoptera littoralis [6]

Cc1cc(C2=NSC(c3cc(Cl)cc(Cl)c3)(C(F)(F)F)C2)ccc1C(=O)Nc1ccc(F)cc1F (stereo not shown) [Compound A55]
at least 80%: control of Heliothis virescens [1] | control of Plutella xylostella [2] | control of Tetranychus urticae [3] | control of Diabrotica balteata [4] | control of Thrips tabaci [5] | control of Spodoptera littoralis [6]

Cc1cc(C2=NSC(c3cc(Cl)cc(Cl)c3)(C(F)(F)F)C2)ccc1C(=O)NCCC1CS(=O)(=O)C1 (stereo not shown) [Compound A33]
at least 80%: control of Heliothis virescens [1] | control of Plutella xylostella [2] | control of Tetranychus urticae [3] | control of Diabrotica balteata [4] | control of Thrips tabaci [5] | control of Spodoptera littoralis [6]

Cc1cc(C2=NSC(c3cc(Cl)cc(Cl)c3)(C(F)(F)F)C2)ccc1C(=O)NCC=C(Cl)Cl (stereo not shown) [Compound A77]
at least 80%: control of Plutella xylostella [2] | control of Tetranychus urticae [3] | control of Diabrotica balteata [4] | control of Thrips tabaci [5] | control of Spodoptera littoralis [6]
